Laboratory results taken from patent US20240043838A1.
These are yes or no findings as the source states them, for the method shown. Binding seen in cells or lysates may run through a third protein. Here binding means that the protein was enriched with, or labelled near, the bait; the list need not be complete.

Chains of the proteins cited; added tags and fusions are not shown. Residues count along the entry.
UniProt Q8K212, residues 114-961: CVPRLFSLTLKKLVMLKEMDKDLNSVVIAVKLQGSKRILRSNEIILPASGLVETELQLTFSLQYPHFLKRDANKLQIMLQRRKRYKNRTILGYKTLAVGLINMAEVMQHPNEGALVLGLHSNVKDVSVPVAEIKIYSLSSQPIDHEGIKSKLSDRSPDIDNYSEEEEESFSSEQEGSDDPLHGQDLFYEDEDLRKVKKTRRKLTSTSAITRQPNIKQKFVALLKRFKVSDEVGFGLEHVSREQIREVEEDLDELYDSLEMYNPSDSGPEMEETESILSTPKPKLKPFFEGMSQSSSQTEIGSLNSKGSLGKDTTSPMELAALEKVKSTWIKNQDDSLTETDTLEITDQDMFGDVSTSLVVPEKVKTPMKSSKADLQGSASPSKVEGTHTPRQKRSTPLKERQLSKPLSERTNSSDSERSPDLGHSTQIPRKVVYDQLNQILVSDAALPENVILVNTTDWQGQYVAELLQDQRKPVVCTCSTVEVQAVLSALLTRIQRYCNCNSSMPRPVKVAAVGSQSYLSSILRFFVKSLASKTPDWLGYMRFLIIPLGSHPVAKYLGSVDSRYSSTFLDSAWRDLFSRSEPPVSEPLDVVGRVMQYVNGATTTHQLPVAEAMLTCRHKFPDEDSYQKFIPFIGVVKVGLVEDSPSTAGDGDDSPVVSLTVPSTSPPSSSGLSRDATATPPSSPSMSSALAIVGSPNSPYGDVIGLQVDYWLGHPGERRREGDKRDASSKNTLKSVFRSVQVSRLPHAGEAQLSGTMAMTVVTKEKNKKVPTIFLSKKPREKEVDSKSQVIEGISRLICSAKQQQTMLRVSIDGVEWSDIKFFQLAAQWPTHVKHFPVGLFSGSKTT

Target: FLAG-Pacs1 (bead-immobilized bait of the co-IP mass spectrometry) (mouse) (UniProt Q8K212)
Test: co-IP mass spectrometry: bead-immobilized FLAG-Pacs1 incubated with murine B cell cytosolic extract, LC-MS/MS

B1: WD repeat domain protein 37 (Wdr37), endogenous, from cytosolic extract of wild-type murine B cells (protein, mouse, UniProt Q8CBE3 1-496, looked up)
chain: MPTESGSCSTARQAKQKRKSHSLSIRRTNSSEQERTGLPREMLEGQDSKLPSSVRSTLLELFGQIEREFENLYIENLELRREIDTLNERLAGEGQAIDGAELSKGQLKTKASHSTSQLSQKLKTTYKASTSKIVSSFKTTTSRAICQLVKEYIGHRDGIWDVSVTRTQPIVLGTASADHTALLWSIETGKCLVKYAGHVGSVNSIKFHPSEQLALTASGDQTAHIWRYVVQLPTPQPVADTSQQISGEDEIECSDKDEPDIDGDVSSDCPTVRVPLTSLKSHQGVVIAADWLVGGKQVVTASWDRTANLYDVETSELVHSLTGHDQELTHCCTHPTQRLVVTSSRDTTFRLWDFRDPSIHSVNVFQGHTDTVTSAVFTVGDNVVSGSDDRTVKVWDLKNMRSPIATIRTDSAINRINVCVGQKIIALPHDNRQVRLFDMSGVRLARLPRSSRQGHRRMVCCSAWSEDHPICNLFTCGFDRQAIGWNINIPALLQEK
  binding: binds
